# Literature values in patent US20110160303A1, “N-ALKYLCARBONYL-AMINO ACID ESTER AND N-ALKYLCARBONYL-AMINO LACTONE COMPOUNDS AND THEIR USE” (Edward Tak WEI, priority 2005, published 2011).
# Some of these results come from one statement about several compounds together. At least one compound was matched to its structure with a doubt left.
# System: skin above the upper lip
# Details: commercial cosmetic cooling compounds; cited from earlier work
smiles,measurement,value
CC(C)[C@@H]1CC[C@@H](C)C[C@H]1OCC(O)CO (stereo partly shown) [menthoxypropanediol],duration of action on the facial skin,≤ 30 min
